Measured values as given in patent US10221139B2, “Inhibitors of histone demethylases” (Gilead Sciences, Inc., priority 2012, dated 2019).
Structures were worked out from names or drawings and are uncertain.

Chains of the proteins cited; added tags and fusions are not shown. Residues count along the entry.
UniProt Q9UGL1, 1-752 limits assumed: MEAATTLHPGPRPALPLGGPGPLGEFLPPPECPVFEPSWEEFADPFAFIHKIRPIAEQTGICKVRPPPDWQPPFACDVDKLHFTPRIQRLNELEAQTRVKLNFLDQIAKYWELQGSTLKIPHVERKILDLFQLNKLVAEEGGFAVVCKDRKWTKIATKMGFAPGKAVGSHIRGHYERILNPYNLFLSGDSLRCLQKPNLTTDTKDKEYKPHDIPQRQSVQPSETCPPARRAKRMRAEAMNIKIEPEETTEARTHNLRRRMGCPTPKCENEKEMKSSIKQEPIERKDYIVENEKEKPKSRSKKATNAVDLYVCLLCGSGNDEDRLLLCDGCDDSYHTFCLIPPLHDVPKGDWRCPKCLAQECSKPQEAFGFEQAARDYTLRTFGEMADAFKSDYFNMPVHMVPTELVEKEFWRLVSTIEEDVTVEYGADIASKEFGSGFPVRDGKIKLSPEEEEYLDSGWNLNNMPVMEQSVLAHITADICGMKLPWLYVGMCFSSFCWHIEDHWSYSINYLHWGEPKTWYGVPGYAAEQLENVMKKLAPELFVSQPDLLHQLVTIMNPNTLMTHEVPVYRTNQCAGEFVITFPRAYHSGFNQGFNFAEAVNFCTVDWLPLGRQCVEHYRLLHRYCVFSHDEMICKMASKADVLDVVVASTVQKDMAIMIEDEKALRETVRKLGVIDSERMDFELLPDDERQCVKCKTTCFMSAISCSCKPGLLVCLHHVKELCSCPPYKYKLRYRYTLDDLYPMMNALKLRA

Target: PLU1 (KDM5B) (Homo sapiens, UniProt Q9UGL1)
Assay: Immunofluorescence assay in U2OS cells transfected with pCMVHA PLU1 (H3K4me2 mark)
Assay type: cell-based
Details: read-out: PLU1 (KDM5B) IC50, 20 hours

COc1ccccc1CN1CCC(NC(=O)CNCc2cc(C(=O)O)ccn2)CC1
IC50: 1 to 50 µM
